Measurements reported in PubChem BioAssay AID686943 (Drosophila RNAi Screening Center, 2013).

- Aim: 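Fly genes whose loss alters ERK activation after insulin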 (primary screen)
- Cell system: Drosophila S2R+ haemocyte-like cells expressing YFP-tagged ERK (Rolled)
- Reagents: long dsRNA against Drosophila genes
- Treatment: insulin stimulation versus unstimulated cells; dose and duration not given
- Measured: 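Per-plate z-scores of phospho-ERK immunostaining normalised to YFP-tagged ERK, measured with and without insulin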
- Scale: replicate 1, z-score of dpERK with insulin and replicate 2, z-score of dpERK with insulin: higher = more active ERK per ERK-YFP after insulin; replicate 1, z-score of dpERK under basal conditions: higher = more basal active ERK per ERK-YFP; replicate 1, z-score of ERK-YFP with insulin: higher = more YFP-tagged ERK signal
The screen tested about 23,000 reagents; shown is an unselected part of those that have a named target and a result. 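Extra replicates exist only for a retested subset of genes; insulin dose and duration not given; both raised and lowered dpERK matter.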 Reagents against one gene are numbered here. Not given: the amount of reagent, the time to read-out.

target | reagent | replicate 1, z-score of dpERK with insulin | replicate 2, z-score of dpERK with insulin | replicate 1, z-score of dpERK under basal conditions | replicate 1, z-score of ERK-YFP with insulin
firl (firelighter) | 1 | 0.57 | 0.58 | -0.91 | -0.22
Lam (Lamin) | 1 | -1.64 | -0.99 | 0.41 | -1.96
Ctl2 (Choline transporter-like 2) | 1 | -0.14 | 0.09 | -0.46 | 0.8
SIDL (Shal Interactor of Di-Leucine Motif) | 1 | -0.74 | 0.04 | 3.83 | 0.66
CG14418 | 1 | -1.03 | -0.35 | -1.74 | -0.16
CG31957 | 1 | 0.49 | 0.7 | 0.12 | -1.33
Rb97D (Ribonuclear protein at 97D) | 1 | 0.34 | -0.18 | -0.51 | 0.9
CG6424 | 1 | 1.13 | 0.65 | -0.27 | 0.1
CG4686 | 1 | 0.3 | 0 | 0.81 | 0.34
sle (slender lobes) | 1 | -0.06 | 0.17 | -0.05 | 0.38
ihog (interference hedgehog) | 1 | -0.69 | -0.38 | -0.41 | -0.43
peb (pebbled) | 1 | -0.75 | -2.31 | -0.42 | 1.33
phyl (phyllopod) | 1 | -0.17 | -0.11 | 0.28 | 0.22
drl (derailed) | 1 | 0.1 | -0.13 | 0.51 | 0.14
Glo1 (Glyoxalase 1) | 1 | -0.72 | -0.46 | -0.23 | -0.21
CG7579 | 1 | 0.12 | -0.56 | -0.11 | 1.25
CG15649 | 1 | 0.35 | 0.03 | 0.97 | 0.27
angel | 1 | 1.2 | 0.27 | 1.14 | 0.37
angel | 2 | 0.94 | 0.61 | -0.8 | -0.69
dmrt99B (doublesex-Mab related 99B) | 1 | -0.57 | -2.64 | -2.35 | -2.68
eIF2Balpha (eukaryotic translation initiation factor 2B subunit alpha) | 1 | 0.87 | -1 | -0.19 | -0.92
Ppn (Papilin) | 1 | 1.17 | 0.12 | 0.41 | 0.45
CG31705 | 1 | -4.09 | -4.56 | 1.31 | 1.32
Vps52 (Vacuolar protein sorting 52) | 1 | 0.63 | 0.4 | 0.99 | 0.12
Clic (Chloride intracellular channel) | 1 | 0.95 | 0.54 | 0.05 | 0.3
Usf | 1 | 0.44 | 0.52 | -0.89 | -0.55
CG7656 | 1 | 0.97 | -0.2 | 1.32 | 0.16
CG7409 | 1 | 1.19 | 0.46 | 0.75 | 0.57
Ppcs (Phosphopantothenoylcysteine synthetase) | 1 | 0.29 | -0.08 | -0.53 | -0.3
CG1638 | 1 | -0.61 | 0 | -0.79 | 0.47
Rubicon | 1 | 0.72 | 0.54 | 0.3 | -0.5
Lnpk (Lunapark) | 1 | -0.13 | 0.01 | -0.97 | 0.11
CG10958 | 1 | 0.1 | 1.01 | -0.09 | 0.34
CG6847 | 1 | -0.04 | -0.6 | 0.04 | -0.3
CG6847 | 2 | 0.5 | 0.68 | -0.86 | 0.21
sxc (super sex combs) | 1 | -0.32 | -0.35 | -1.67 | -0.37
casp (caspar) | 1 | 0.36 | -0.27 | 0.75 | -0.08
CG13725 | 1 | -0.66 | 0.41 | 0 | 0.15
CG5910 | 1 | 0.13 | 0.14 | 0.38 | -0.27
CG3566 | 1 | -1.05 | -0.29 | -2.49 | -0.46
CrebA (Cyclic-AMP response element binding protein A) | 1 | -0.64 | 0.11 | -0.08 | 0.49
Gmap (Golgi microtubule-associated protein) | 1 | -0.98 | -0.87 | 3.48 | 0.5
Gmap (Golgi microtubule-associated protein) | 2 | 0.4 | 0.32 | -0.01 | -0.1
unpg (unplugged) | 1 | -0.59 | 1.23 | -0.27 | 1.45
Ccp84Ag | 1 | 0.69 | 0.1 | -0.67 | -0.2
Ccp84Ag | 2 | 0.3 | 0.11 | -0.08 | 1.37
CG34377 | 1 | 0.34 | -0.19 | 0.42 | 0.16
CG34377 | 2 | -0.1 | 0.55 | 0.5 | 1.05
CG34377 | 3 | 0.3 | -0.1 | 0.56 | 0.61
CG34377 | 4 | 0.16 | 0.05 | 0.18 | 0.8
CG34377 | 5 | 0.54 | 0.31 | 0.08 | 0.62
Ugt305A1 (UDP-glycosyltransferase family 305 member A1) | 1 | -0.81 | -0.33 | 0.82 | 0.29
Hakai | 1 | -0.34 | 0.4 | 0.94 | 0.75
CG8204 | 1 | 0.52 | 0.84 | 0.07 | -0.2
Pp2A-29B (Protein phosphatase 2A at 29B) | 1 | 0.16 | -0.32 | 0.92 | 0.72
PolA2 (DNA polymerase alpha subunit 2) | 1 | 0.64 | 0.08 | 0.18 | 0.04
Orc2 (Origin recognition complex subunit 2) | 1 | 0.96 | 0.78 | -0.13 | 1.79
CG17475 | 1 | -0.22 | 0.16 | -0.01 | 0.32
mRRF1 (mitochondrial ribosome recycling factor 1) | 1 | 0.38 | -0.6 | 0.17 | -0.32
CG7778 | 1 | -0.14 | 0.76 | -0.4 | -0.19
CG18265 | 1 | 0.25 | 0.71 | -0.69 | -0.52
Tim8 | 1 | -0.64 | -2.71 | -0.12 | 0.03
D12 | 1 | -0.27 | 1.23 | -0.43 | -0.18
Gclc (Glutamate-cysteine ligase catalytic subunit) | 1 | -1.34 | 0.62 | 0.77 | 0.29
CG14820 | 1 | 0.75 | 0.68 | 0.72 | -0.11
Gnptab | 1 | 1.12 | 0.23 | 0.79 | -0.32
Cpr5C (Cuticular protein 5C) | 1 | 0.65 | -0.09 | 0.24 | 0.15
CG7201 | 1 | 0.74 | 0.56 | -0.71 | 0.79
udt (undicht) | 1 | 0.43 | 1.63 | -0.03 | 0.08
cn (cinnabar) | 1 | -0.75 | -0.63 | -0.11 | -0.72
CG14302 | 1 | -0.35 | 0.07 | 0.6 | -0.09
CG8586 | 1 | -0.06 | -0.17 | 0.32 | 0.29
CG7924 | 1 | 0.53 | 0.06 | 0.62 | -0.12
